# No constants are given. Whether binding was seen depends on the method and setting. In cells and extracts the contact can be indirect. A result given as binding can be weak or reduced; the word gives no strength. Sequences can lack the tags named with a protein.
# Target: T1, SFB-tagged LATS2 (human) (UniProt Q9NRM7)
# T1 sequence: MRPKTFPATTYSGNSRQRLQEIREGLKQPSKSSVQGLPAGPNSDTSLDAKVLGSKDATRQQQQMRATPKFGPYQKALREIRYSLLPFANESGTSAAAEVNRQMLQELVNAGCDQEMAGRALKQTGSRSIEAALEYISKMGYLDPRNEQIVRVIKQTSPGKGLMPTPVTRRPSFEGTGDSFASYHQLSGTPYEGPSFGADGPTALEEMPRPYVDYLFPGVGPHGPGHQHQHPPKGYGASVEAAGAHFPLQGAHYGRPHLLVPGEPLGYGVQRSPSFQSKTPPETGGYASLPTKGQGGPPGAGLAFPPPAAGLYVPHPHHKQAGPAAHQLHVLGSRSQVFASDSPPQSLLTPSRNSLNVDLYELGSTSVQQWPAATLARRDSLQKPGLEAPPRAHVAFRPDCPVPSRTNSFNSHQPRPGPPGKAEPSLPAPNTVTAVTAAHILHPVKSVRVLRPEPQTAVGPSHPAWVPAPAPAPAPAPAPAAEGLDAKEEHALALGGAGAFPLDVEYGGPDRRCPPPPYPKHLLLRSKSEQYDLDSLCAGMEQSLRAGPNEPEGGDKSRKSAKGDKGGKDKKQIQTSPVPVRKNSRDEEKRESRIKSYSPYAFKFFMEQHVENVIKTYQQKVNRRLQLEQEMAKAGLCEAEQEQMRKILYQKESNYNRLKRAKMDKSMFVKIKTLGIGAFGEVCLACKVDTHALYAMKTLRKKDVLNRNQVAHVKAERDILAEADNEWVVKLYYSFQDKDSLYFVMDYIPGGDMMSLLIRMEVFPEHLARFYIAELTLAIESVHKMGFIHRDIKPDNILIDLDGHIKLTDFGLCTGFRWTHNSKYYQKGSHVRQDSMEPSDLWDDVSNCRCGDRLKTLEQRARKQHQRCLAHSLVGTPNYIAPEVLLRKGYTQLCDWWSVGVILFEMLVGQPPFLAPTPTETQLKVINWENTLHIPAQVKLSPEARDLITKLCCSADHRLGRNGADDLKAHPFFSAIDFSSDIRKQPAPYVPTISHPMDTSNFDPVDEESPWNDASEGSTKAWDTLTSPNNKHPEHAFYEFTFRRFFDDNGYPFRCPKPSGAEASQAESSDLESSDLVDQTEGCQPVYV
# Test: pull-down; HEK293T cells transfected with HA-MOB1 and SFB-tagged LATS1 or LATS2 (LOF mutants); pulldown with S protein beads
substance,measurement,value
HA-MOB1 (human),binding,binds

# Source: article PMC11582751
